Data from PMC3061866.

B1: Spc7 (protein, UniProt O59757 1-1364)
chain: MPTSPRRNSIATTDNVIGRNKSRKRPHSLGGPGALQELKEHTNPAKGILKSYSSFSVDPAFTGDEDFNDIHTQINNTVIGISSNVMAASKRLQMEDLQQLSRETSRKSLNRRVSFASHARVRWYPKDHQSDSEKSTSNHSTPERTFASDAKNHSPKGPTTTSFSRNETQSSPHSHSASIISDGSDMDIASPIRSTESDMVSEALNAGHPPPSLYPENDDLSIQNPTKALPEAEKALDVHDATREQVNDREETNMDLTIQFQEADSFLSHSESIKGLSSSEQGTVYSLKASHDPSNQTQLSSPNKSSSPTSIEISDFSKNNENHDQSENKEEEEDMMLTRPIEIPQHFSPIARPLTSQEAIVDMDITSNNINLSPVSHFSNGLDLQNLEEAPMNLTRPINANPHLTNHSPNDLTNGEEEMDTTSAFNIENSHLTLLSPIRPSSRSMEEQIMDLTQPISSTNAPTHLNEDDLNQFTSNISSSSKPRKDNNKTANSSKPIPDSEDFMDITRPFNILSPSKEALSEEQPMELTSTVFPCENSTSHLEVEEAAMDETVAFQIRGNNVELPSADKENAEREEIPSYSDKSENFNTTSFTNHERSPNGNNNLKFSKDPNSSSPSRHVVATPTDKLGTRKRRLRYSTSSFDQSTLRRNRLATIRNARKSISTLNDRELLPVNFFEKKVNSGLYKSVERSENYRLGATPLTAEKPFTTEKPLSSLPEEVSRQPTDDKGEQVSNADVDSGLSKTERLTIQQTNEIKHVPTNTTSSVKLPQQPSNEDEKERITTADYADSTSLERLESQEPNRNELVQVGSSNAGNTTSVGMNEHEKSPVKLSKGVSNVDTSLGASTINTNILNQDSGPNEEIPVGNEPEFDTMPTLPNVEPISLSDFLKMTGIEFLDNLTIAKRRETLLPNAEENKKCSIQELLESFYIQFPLLELYKFSCQQLQDYIAEGKDFVTKIEEETLKENPLLFYEYRKASSDMRVLMDSQFLMMKTFARLQAKGDWYEWREGLMQGIKHELNLNLTGMQRSLTHLMDVANVIHPYAQEIQERYNGSITTVQTLKKQKEFANQYDSTLLAQAQEKLEKLKVEVERRRRLLSEKEERRKELAIKIEQVTNSCSDLELRTNAEQDFYAKNQDFEFDEIKRYEEQLLNLKNELGWTIVSLTAGGIKLATNNTALSPYSAEVTVEILRQNFQVNVDIACKFPNESNACSSNVLEHVASSFSKWHSKVFSRNLRLLKKYLNDVSICWEQIVYLVQDFQRLWYHWPFLSVENDDKSIIINVELYLRSVSSKVKVVFGLPIDTIYQTTEVGKFYASTSVAVKQMYAESEGDSYVSEVLNTLSEVVHCTSTYALSSACLTVWNKYS

How the values were obtained:
Assay in all cases: affinity purification with mass spectrometry; anti-FLAG immunoprecipitation from extracts of S. pombe strains expressing Mis17-, Mis6- or Mis12-FLAG under the native promoter; extraction buffer 25 mM HEPES-KOH pH 7.5, 200 mM NaCl, 10% glycerol, 0.1% NP-40, 1 mM PMSF; 4-12% SDS-PAGE, gel slices, in-gel trypsin digestion, LC/MS/MS
[1] = target: T1, Mis17-FLAG (S. pombe) (UniProt O94643)
T1 sequence: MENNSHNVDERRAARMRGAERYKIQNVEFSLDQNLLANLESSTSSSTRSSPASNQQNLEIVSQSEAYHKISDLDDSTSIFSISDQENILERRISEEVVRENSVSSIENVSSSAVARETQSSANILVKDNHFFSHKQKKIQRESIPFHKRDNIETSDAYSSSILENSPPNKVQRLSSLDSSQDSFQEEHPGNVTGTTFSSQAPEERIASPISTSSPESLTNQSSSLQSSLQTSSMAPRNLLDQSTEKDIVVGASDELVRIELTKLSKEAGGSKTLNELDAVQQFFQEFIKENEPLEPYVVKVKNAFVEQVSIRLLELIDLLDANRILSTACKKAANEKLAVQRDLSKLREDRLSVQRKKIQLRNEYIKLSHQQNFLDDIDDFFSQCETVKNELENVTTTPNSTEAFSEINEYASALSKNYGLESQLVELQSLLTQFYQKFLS

[2] = target: T2, Mis12-FLAG (S. pombe) (UniProt Q9Y738)
T2 sequence: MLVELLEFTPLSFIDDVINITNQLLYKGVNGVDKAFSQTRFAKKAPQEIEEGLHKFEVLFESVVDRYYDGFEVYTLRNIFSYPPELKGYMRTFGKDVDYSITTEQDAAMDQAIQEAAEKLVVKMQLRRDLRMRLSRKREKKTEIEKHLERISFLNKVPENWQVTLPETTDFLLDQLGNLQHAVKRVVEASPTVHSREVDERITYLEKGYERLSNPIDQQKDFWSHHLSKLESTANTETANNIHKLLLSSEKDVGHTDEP

[3] = target: T3, Mis6-FLAG (S. pombe) (UniProt P87227)
T3 sequence: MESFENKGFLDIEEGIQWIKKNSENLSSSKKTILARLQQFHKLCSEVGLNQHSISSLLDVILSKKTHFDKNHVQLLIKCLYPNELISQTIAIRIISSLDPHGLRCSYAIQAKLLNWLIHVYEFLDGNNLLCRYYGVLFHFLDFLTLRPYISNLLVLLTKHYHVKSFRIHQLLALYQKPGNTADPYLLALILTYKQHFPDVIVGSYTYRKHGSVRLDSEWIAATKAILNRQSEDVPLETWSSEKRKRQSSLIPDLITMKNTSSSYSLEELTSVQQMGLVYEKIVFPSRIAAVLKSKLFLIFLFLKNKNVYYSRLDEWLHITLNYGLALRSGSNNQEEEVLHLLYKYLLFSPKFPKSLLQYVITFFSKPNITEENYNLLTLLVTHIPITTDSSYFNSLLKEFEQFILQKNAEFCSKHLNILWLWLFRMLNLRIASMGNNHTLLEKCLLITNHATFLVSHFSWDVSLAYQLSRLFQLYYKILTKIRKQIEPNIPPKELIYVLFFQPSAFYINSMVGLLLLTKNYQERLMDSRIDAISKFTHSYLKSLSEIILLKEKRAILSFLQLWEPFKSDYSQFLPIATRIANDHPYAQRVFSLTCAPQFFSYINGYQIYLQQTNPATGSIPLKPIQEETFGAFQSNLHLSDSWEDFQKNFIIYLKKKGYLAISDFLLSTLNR

[4] = target: T1, Mis17-FLAG (S. pombe); remark: listed apart in the source
[5] = target: T2, Mis12-FLAG (S. pombe); remark: listed apart in the source
[6] = target: T3, Mis6-FLAG (S. pombe); remark: listed apart in the source

Molecule | binding [1] | binding [2] | binding [3] | binding [4] | binding [5] | binding [6]
Sam50 (S. pombe) | binds | no binding | binds |  |  | 
Fta5 (S. pombe) | no binding |  | no binding |  |  | 
B1 |  |  |  | no binding | binds | no binding

Read-outs that look alike come from different tables or passages of the source. These are yes or no findings as the source states them, for the method shown. Binding seen in cells or lysates may run through a third protein. Here binding means that the protein was enriched with, or labelled near, the bait; the list need not be complete. For some assays here: No binding means not detected with the bait. Tags and fused reporters may be left off the sequences shown.
